In US20210207128:
Construct, isoform or probe ends are uncertain for at least one entry. Tags and fusion partners may be left off the protein sequences shown.

Target: T1, Nattokinase (NK) (UniProt P35835)
T1 sequence (looked up, limits assumed): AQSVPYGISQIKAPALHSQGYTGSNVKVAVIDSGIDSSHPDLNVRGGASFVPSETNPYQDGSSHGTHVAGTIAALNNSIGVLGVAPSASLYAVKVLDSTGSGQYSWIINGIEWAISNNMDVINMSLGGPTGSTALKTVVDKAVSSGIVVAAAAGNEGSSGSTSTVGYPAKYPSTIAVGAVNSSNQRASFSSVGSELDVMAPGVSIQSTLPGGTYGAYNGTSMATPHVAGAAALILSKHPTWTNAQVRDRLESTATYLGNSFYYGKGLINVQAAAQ
Test: SPR
Conditions: solution competition SPR (KS), 4 C, purified native protein, protein details: purchased, further purified by chromatography, label: 5' 6-FAM (FITC) in CE assay, single-stranded DNA

| Sequence | Kd (R2 0.99) [nM] | also measured |
| --- | --- | --- |
| TCGATAGTTGTACTGGAGTGAATCACTGA [NK-APT-15] | – | Kd (R2 0.98): 21 nM |
| GCCTTAAAAACGTCCTTAGTGACGTTTAC [NK-APT-04] | 15 | – |
| AAAGGCGCTGTGCACAGTGTCCCCGCGGG [NK-APT-13] | – | Kd (R2 0.97): 35 nM |
| AAATGAGGACCTCATTATCTTAGGAAGGT [NK-APT-03] | 87 | – |
| CCGAGGGGAATTCACCACGAATCGCCTCT [NK-APT-14] | – | Kd (R2 0.97): 28 nM |
| CTCGTGTAAAACGATGGTAGCTGTACTTG [NK-APT-12] | 8.7 | – |
| GACTACCGCGGAGATCTCCAATCGGGATG [NK-APT-02] | 16 | – |
